Results: PMC8931120
Results are given in words; binding and its absence hold for the method and conditions named. In cells and extracts the contact can be indirect. Some binding calls cover weakened binding; strength is not graded here.

By UniProt entry, the sequences of proteins in these tests, tags left out.
UniProt O94817: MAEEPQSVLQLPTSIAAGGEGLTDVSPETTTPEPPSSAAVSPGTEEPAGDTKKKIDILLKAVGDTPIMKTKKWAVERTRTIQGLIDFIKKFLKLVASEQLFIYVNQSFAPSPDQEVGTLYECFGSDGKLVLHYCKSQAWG
UniProt Q676U5: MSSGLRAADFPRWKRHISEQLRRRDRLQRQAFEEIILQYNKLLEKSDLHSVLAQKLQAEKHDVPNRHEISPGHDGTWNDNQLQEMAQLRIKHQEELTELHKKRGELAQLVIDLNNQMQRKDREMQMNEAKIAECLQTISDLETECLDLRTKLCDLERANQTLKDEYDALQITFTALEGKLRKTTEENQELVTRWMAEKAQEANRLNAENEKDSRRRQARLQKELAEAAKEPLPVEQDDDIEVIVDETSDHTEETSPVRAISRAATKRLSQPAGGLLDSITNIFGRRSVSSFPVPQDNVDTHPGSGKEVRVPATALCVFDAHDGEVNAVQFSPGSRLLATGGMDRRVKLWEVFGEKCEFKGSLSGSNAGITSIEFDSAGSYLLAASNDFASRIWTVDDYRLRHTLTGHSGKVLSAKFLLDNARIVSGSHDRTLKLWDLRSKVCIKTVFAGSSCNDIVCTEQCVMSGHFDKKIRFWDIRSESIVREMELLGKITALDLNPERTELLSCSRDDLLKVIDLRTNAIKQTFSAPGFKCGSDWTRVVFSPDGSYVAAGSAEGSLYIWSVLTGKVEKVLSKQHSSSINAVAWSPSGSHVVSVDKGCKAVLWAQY
UniProt Q9H1Y0: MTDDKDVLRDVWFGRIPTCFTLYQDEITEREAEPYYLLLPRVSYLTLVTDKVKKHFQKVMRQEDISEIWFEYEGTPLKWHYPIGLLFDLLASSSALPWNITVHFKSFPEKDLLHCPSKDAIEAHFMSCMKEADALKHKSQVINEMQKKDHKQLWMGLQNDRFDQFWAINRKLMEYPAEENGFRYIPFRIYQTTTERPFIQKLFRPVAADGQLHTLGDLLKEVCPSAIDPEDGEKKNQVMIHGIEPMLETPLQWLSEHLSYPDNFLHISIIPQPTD
UniProt A5YKK6: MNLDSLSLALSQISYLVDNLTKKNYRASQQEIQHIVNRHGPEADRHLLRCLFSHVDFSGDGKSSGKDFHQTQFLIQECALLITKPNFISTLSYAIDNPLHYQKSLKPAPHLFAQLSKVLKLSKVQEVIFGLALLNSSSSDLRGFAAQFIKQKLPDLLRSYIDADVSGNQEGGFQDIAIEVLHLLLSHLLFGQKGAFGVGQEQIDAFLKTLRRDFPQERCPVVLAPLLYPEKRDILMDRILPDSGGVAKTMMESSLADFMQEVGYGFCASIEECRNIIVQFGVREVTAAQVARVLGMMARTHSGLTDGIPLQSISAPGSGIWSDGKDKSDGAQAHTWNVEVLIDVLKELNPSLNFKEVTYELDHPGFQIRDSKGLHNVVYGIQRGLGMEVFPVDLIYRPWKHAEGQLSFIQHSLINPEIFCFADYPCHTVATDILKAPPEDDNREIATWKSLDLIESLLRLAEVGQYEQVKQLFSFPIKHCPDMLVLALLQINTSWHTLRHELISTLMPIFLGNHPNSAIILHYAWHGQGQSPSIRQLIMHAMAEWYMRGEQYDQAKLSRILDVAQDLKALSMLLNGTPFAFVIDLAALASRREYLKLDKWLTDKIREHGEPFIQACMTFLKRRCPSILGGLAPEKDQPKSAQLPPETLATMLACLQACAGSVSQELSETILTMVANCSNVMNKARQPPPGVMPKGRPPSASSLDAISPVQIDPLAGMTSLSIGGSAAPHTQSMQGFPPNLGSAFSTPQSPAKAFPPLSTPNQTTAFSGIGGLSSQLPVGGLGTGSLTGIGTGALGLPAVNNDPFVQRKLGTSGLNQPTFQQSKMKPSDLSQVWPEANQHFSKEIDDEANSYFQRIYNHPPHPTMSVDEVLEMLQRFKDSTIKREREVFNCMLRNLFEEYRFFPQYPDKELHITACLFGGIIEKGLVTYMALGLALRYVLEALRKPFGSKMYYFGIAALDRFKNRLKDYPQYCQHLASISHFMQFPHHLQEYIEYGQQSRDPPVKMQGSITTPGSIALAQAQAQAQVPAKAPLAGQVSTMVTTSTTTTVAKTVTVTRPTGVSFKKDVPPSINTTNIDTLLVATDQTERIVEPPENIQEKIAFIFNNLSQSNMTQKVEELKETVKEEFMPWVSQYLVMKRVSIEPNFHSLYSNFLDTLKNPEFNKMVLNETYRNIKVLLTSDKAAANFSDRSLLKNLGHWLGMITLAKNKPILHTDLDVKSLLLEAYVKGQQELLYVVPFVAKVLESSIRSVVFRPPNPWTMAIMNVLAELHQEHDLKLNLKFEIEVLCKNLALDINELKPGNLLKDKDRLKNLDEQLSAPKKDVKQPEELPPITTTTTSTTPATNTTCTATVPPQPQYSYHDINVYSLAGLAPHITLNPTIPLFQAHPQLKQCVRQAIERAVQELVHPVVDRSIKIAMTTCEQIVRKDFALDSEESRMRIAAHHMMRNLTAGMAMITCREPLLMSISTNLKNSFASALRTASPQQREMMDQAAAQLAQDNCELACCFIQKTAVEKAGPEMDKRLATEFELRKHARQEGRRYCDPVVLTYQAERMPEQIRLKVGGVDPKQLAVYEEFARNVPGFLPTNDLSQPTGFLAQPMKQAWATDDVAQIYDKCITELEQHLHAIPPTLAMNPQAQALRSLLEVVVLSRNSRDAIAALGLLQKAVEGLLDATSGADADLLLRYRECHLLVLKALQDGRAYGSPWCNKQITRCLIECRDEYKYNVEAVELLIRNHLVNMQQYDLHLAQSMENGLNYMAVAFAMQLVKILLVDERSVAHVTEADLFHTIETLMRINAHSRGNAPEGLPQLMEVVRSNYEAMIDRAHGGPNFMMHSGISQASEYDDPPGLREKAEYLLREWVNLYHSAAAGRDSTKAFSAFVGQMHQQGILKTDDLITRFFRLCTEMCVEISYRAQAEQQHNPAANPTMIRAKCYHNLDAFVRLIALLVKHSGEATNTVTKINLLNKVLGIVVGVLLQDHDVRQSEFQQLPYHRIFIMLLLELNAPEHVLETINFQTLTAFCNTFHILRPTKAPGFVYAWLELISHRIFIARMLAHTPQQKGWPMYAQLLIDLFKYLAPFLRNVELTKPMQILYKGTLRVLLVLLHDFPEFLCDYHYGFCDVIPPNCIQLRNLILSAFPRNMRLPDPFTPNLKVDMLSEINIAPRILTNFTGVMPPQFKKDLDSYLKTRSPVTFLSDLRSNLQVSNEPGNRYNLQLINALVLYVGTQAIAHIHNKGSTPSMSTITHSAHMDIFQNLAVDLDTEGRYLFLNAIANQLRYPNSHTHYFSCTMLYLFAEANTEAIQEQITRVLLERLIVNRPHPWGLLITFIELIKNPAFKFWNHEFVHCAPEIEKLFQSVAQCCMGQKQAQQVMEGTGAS
UniProt Q9UIV1: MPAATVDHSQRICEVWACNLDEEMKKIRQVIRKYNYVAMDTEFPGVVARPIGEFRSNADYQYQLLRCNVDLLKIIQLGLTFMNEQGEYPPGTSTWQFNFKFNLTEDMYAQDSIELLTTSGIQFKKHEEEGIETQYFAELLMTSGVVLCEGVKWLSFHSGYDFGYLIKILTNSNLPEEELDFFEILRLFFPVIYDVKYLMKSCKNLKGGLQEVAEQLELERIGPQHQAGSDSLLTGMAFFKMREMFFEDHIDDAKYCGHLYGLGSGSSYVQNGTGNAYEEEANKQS

What was measured:
Test in all cases: co-IP; HEK293T transfected with FLAG, FLAG-ATG5, FLAG-ATG12 or FLAG-ATG16L1, treated with Rapa + CQ for 12 h; IP of total cell extracts with anti-FLAG antibody; western blotting of endogenous CNOT1 and CNOT7
FLAG-ATG12 = FLAG-ATG12 (UniProt O94817)
FLAG-ATG16L1 = FLAG-ATG16L1 (UniProt Q676U5)
FLAG-ATG5 = FLAG-ATG5 (UniProt Q9H1Y0)

Measured: binding

CNOT1, the largest component of the CCR4-NOT deadenylase complex (from UniProt A5YKK6 1-2376)
binds: all assays above

CNOT7, deadenylase component of the CCR4-NOT complex (from UniProt Q9UIV1 1-285)
binds: all assays above
